Assay [1] concerns the target T1, SLC25A46 (human (endogenous in fibroblasts)) (UniProt Q96AG3).
T1 sequence: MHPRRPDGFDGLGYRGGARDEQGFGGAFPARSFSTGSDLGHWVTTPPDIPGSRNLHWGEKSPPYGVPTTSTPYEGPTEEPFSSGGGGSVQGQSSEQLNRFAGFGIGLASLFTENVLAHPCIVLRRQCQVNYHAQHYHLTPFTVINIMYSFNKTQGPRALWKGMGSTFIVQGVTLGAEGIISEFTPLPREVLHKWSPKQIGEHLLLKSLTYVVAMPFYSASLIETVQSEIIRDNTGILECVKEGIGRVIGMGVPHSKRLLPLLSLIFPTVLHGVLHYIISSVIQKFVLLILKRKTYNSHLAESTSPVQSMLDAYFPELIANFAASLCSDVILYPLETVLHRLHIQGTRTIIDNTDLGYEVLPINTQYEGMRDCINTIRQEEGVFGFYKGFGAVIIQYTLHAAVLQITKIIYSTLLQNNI
In words: co-IP.

Assay [2] concerns the target OPA1 (human (endogenous in fibroblasts)). In words: co-IP.

This is an account of results in publication doi:10.1101/2022.09.16.508286.

Results are given in words; binding and its absence hold for the method and conditions named. In cells and extracts the contact can be indirect. Binding can be weak; no strength is given.

As for “OPA1 (human (endogenous in fibroblasts))”, the binding entry in assay [1] is recorded as “binds”.

B1: SLC25A46 (protein, UniProt Q96AG3 1-418)
chain: MHPRRPDGFDGLGYRGGARDEQGFGGAFPARSFSTGSDLGHWVTTPPDIPGSRNLHWGEKSPPYGVPTTSTPYEGPTEEPFSSGGGGSVQGQSSEQLNRFAGFGIGLASLFTENVLAHPCIVLRRQCQVNYHAQHYHLTPFTVINIMYSFNKTQGPRALWKGMGSTFIVQGVTLGAEGIISEFTPLPREVLHKWSPKQIGEHLLLKSLTYVVAMPFYSASLIETVQSEIIRDNTGILECVKEGIGRVIGMGVPHSKRLLPLLSLIFPTVLHGVLHYIISSVIQKFVLLILKRKTYNSHLAESTSPVQSMLDAYFPELIANFAASLCSDVILYPLETVLHRLHIQGTRTIIDNTDLGYEVLPINTQYEGMRDCINTIRQEEGVFGFYKGFGAVIIQYTLHAAVLQITKIIYSTLLQNNI
On to B1, for which the binding entry in assay [2] is reported as “binds”.
